# Test results from the supplement of paper PMC10735217.
# Where “and” joins values, the source holds several entries; their conditions need not be identical. Equal entries are not always repeated. Structures can show the parent of a compound that is named as a salt. The list shows a part of the results. Single values are uncertain here, since repeats match poorly.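 In a drug-repurposing library screen, luminescence reads luciferase driven by eight TEAD-binding elements, stably integrated into human kidney-derived cells. Compounds scoring over five robust Z scores above the plate mean are called hits.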
# Test system: HEK293A TEAD-LUC reporter
# Experiment: TEAD-luciferase reporter activity (YAP activation), robust Z score vs plate; higher = stronger YAP/TEAD activation
# Settings: 24 h
Compound,TEAD-luciferase reporter activity (compound concentration: 200 nM),TEAD-luciferase reporter activity (compound concentration: 2 uM),TEAD-luciferase reporter activity (compound concentration: 10 uM)
CNC(=O)c1c(-c2ccc(F)cc2)oc2cc(NS(C)(=O)=O)c(OC(C)C)cc12,inactive: 1.3,inactive: -1.16,inactive: 0.667
CCCCc1nc(CCCC)n(Cc2ccc(-c3ccccc3-c3nnn[nH]3)cc2)n1,inactive: 0.278,inactive: -1.32,inactive: 0.763
C[C@H]1O[C@@H](n2cc(-c3ccccc3)c3c(Nc4ccc(F)cc4)ncnc32)[C@H](O)[C@@H]1O,inactive: -0.0542,inactive: -0.518,inactive: 2.77
Cc1ccc2c(n1)Oc1ccc(C(C)C(=O)OCC(=O)N(C)C)cc1C2 (stereo not given),inactive: -1.3,inactive: 2.95,active: 5.7
CC[C@H]1NC(=O)[C@@H](NC(=O)c2ncccc2O)[C@@H](C)OC(=O)[C@H](c2ccccc2)NC(=O)[C@@H]2CC(=O)[C@H](CS[C@@H]3C[NH+]4CCC3CC4)CN2C(=O)[C@H](Cc2ccc(N(C)C)cc2)N(C)C(=O)[C@@H]2CCCN2C1=O [Quinupristin (mesylate)],inactive: -0.632,inactive: 1.81,inactive: 0.134
CCc1ccc([C@@H]2O[C@H](CO)[C@@H](O)[C@H](O)[C@H]2O)cc1Cc1ccc2c(c1)OCCO2 [Licogliflozin],inactive: 0.138,–,inactive: 0.0492
O=C1NC2(CCN(Cc3cccc4ccccc34)CC2)Oc2ccccc21,inactive: -0.24,–,inactive: 0.0471
CN1C(=O)[C@H](O)C(c2ccccc2)C1C(O)c1ccccc1 (stereo not given in full),inactive: -0.61,inactive: -0.436,inactive: -0.463
CN[C@H](CC(C)C)C(=O)N[C@@H](C(=O)N[C@H](Cc1ccccc1)C(=O)N[C@H](Cc1ccccc1)C(=O)N[C@H](CC(C)C)C(N)=O)C(C)C,inactive: 4.04,inactive: 0.831,inactive: 1.47
CCN(CC)CCn1c(=O)c(Cc2cc(OC)c(OC)c(OC)c2)nc2ccccc21,inactive: 0.194,inactive: -2.54,inactive: -1.09
CCc1[nH]c(=O)[nH]c1C(=O)c1ccc(-n2ccnc2)cc1,inactive: 0.316,inactive: -1.3,inactive: -1.15
COc1cccc(CN2CCC(N3CCCNC3=O)CC2)c1,inactive: 1.21,–,inactive: 2.18
CN(CCOC(=O)COc1ccc(Cl)cc1)C12C[C@H]3C[C@@H](C1)C[C@@H](C2)C3,inactive: -3.16,inactive: -1.73,inactive: -2.22
[Na][Cl],inactive: 1.29,inactive: -1.33,inactive: -0.326
"CCCCOc1ccc(C(=O)CCN2CCCCC2)cc1 [dyclonine HCl, BEMA, Atrix]",inactive: -0.108,–,inactive: 0.567
"CCCCOc1ccc(C(=O)CCN2CCCCC2)cc1 [dyclonine HCl, BEMA]",–,inactive: -1.17,–
O=P(O)(O)OC[C@H]1O[C@@H](n2cnc3c(NCc4ccccc4)ncnc32)[C@H](O)[C@@H]1O,inactive: -0.435,inactive: -0.132,inactive: 1.14
Cc1ccc(C(=O)c2ccc(CC(=O)NCC(=O)O)n2C)cc1 [tolmetin glycine amide],inactive: -0.22,inactive: -0.213,inactive: 2.63
Cc1ccc2c(c1)C(=O)c1ccccc1CS2,inactive: -0.467,inactive: 1.1,inactive: -1.06
CN(C)S(=O)(=O)c1cccc(-c2cs/c(=N\c3ccccc3)n2Cc2ccccc2)c1,inactive: -2.17,inactive: -2.03,inactive: -1.4
CN1CC[C@@]23NC(=O)C[C@@H](c4cc(Cl)ccc4O2)C3C1 (stereo not given in full) [lortalamine],inactive: -0.476,inactive: -1.06,inactive: -0.884
CN(C)[C@@H]1CCN(c2ccc3nc(-c4c(N)c5ccccc5[nH]c4=O)[nH]c3c2)C1,inactive: 0.172,inactive: -1.08,active: 8.66
Nc1nc2ccccc2n1Cc1ccc(C(F)(F)F)cc1,inactive: -0.925,inactive: -2.04,inactive: 2.96
c1ccc(P(CCCP(c2ccccc2)c2ccccc2)c2ccccc2)cc1,inactive: -1.16,inactive: -0.8 and inactive: -0.862,inactive: -0.497
O=C(Nc1cnc(Cl)nc1)c1ccc(F)c(F)c1,inactive: -0.862,inactive: 3.45,inactive: 0.366
CCNc1ncn(Cc2ccc(OC)c(OC3CCCC3)c2)c2nc(C(C)C)nc1-2,inactive: 0.239,inactive: -0.317,inactive: 0.575
COc1c(OCCCN2CCOCC2)ccc2c1N=C(NC(=O)c1cnc(N)nc1)N1CCN=C21 [Copanlisib hydrochloride],inactive: -2.13,inactive: -2.06,inactive: -0.137

# Pulled one by one from above, 2 records:
Compound,TEAD-luciferase reporter activity (compound concentration: 200 nM),TEAD-luciferase reporter activity (compound concentration: 2 uM),TEAD-luciferase reporter activity (compound concentration: 10 uM)
CN(CCOC(=O)COc1ccc(Cl)cc1)C12C[C@H]3C[C@@H](C1)C[C@@H](C2)C3,inactive: -3.16,inactive: -1.73,inactive: -2.22
COc1c(OCCCN2CCOCC2)ccc2c1N=C(NC(=O)c1cnc(N)nc1)N1CCN=C21 [Copanlisib hydrochloride],inactive: -2.13,inactive: -2.06,inactive: -0.137
